Experimental data published in publication PMC9437860.
These are yes or no findings as the source states them, for the method shown. In cells and extracts the contact can be indirect. A yes stands for co-enrichment or nearness to the bait. Other partners may have been found.

Protein sequences, listed by entry. Tags and fused reporters are not part of them.
UniProt Q9JLC8: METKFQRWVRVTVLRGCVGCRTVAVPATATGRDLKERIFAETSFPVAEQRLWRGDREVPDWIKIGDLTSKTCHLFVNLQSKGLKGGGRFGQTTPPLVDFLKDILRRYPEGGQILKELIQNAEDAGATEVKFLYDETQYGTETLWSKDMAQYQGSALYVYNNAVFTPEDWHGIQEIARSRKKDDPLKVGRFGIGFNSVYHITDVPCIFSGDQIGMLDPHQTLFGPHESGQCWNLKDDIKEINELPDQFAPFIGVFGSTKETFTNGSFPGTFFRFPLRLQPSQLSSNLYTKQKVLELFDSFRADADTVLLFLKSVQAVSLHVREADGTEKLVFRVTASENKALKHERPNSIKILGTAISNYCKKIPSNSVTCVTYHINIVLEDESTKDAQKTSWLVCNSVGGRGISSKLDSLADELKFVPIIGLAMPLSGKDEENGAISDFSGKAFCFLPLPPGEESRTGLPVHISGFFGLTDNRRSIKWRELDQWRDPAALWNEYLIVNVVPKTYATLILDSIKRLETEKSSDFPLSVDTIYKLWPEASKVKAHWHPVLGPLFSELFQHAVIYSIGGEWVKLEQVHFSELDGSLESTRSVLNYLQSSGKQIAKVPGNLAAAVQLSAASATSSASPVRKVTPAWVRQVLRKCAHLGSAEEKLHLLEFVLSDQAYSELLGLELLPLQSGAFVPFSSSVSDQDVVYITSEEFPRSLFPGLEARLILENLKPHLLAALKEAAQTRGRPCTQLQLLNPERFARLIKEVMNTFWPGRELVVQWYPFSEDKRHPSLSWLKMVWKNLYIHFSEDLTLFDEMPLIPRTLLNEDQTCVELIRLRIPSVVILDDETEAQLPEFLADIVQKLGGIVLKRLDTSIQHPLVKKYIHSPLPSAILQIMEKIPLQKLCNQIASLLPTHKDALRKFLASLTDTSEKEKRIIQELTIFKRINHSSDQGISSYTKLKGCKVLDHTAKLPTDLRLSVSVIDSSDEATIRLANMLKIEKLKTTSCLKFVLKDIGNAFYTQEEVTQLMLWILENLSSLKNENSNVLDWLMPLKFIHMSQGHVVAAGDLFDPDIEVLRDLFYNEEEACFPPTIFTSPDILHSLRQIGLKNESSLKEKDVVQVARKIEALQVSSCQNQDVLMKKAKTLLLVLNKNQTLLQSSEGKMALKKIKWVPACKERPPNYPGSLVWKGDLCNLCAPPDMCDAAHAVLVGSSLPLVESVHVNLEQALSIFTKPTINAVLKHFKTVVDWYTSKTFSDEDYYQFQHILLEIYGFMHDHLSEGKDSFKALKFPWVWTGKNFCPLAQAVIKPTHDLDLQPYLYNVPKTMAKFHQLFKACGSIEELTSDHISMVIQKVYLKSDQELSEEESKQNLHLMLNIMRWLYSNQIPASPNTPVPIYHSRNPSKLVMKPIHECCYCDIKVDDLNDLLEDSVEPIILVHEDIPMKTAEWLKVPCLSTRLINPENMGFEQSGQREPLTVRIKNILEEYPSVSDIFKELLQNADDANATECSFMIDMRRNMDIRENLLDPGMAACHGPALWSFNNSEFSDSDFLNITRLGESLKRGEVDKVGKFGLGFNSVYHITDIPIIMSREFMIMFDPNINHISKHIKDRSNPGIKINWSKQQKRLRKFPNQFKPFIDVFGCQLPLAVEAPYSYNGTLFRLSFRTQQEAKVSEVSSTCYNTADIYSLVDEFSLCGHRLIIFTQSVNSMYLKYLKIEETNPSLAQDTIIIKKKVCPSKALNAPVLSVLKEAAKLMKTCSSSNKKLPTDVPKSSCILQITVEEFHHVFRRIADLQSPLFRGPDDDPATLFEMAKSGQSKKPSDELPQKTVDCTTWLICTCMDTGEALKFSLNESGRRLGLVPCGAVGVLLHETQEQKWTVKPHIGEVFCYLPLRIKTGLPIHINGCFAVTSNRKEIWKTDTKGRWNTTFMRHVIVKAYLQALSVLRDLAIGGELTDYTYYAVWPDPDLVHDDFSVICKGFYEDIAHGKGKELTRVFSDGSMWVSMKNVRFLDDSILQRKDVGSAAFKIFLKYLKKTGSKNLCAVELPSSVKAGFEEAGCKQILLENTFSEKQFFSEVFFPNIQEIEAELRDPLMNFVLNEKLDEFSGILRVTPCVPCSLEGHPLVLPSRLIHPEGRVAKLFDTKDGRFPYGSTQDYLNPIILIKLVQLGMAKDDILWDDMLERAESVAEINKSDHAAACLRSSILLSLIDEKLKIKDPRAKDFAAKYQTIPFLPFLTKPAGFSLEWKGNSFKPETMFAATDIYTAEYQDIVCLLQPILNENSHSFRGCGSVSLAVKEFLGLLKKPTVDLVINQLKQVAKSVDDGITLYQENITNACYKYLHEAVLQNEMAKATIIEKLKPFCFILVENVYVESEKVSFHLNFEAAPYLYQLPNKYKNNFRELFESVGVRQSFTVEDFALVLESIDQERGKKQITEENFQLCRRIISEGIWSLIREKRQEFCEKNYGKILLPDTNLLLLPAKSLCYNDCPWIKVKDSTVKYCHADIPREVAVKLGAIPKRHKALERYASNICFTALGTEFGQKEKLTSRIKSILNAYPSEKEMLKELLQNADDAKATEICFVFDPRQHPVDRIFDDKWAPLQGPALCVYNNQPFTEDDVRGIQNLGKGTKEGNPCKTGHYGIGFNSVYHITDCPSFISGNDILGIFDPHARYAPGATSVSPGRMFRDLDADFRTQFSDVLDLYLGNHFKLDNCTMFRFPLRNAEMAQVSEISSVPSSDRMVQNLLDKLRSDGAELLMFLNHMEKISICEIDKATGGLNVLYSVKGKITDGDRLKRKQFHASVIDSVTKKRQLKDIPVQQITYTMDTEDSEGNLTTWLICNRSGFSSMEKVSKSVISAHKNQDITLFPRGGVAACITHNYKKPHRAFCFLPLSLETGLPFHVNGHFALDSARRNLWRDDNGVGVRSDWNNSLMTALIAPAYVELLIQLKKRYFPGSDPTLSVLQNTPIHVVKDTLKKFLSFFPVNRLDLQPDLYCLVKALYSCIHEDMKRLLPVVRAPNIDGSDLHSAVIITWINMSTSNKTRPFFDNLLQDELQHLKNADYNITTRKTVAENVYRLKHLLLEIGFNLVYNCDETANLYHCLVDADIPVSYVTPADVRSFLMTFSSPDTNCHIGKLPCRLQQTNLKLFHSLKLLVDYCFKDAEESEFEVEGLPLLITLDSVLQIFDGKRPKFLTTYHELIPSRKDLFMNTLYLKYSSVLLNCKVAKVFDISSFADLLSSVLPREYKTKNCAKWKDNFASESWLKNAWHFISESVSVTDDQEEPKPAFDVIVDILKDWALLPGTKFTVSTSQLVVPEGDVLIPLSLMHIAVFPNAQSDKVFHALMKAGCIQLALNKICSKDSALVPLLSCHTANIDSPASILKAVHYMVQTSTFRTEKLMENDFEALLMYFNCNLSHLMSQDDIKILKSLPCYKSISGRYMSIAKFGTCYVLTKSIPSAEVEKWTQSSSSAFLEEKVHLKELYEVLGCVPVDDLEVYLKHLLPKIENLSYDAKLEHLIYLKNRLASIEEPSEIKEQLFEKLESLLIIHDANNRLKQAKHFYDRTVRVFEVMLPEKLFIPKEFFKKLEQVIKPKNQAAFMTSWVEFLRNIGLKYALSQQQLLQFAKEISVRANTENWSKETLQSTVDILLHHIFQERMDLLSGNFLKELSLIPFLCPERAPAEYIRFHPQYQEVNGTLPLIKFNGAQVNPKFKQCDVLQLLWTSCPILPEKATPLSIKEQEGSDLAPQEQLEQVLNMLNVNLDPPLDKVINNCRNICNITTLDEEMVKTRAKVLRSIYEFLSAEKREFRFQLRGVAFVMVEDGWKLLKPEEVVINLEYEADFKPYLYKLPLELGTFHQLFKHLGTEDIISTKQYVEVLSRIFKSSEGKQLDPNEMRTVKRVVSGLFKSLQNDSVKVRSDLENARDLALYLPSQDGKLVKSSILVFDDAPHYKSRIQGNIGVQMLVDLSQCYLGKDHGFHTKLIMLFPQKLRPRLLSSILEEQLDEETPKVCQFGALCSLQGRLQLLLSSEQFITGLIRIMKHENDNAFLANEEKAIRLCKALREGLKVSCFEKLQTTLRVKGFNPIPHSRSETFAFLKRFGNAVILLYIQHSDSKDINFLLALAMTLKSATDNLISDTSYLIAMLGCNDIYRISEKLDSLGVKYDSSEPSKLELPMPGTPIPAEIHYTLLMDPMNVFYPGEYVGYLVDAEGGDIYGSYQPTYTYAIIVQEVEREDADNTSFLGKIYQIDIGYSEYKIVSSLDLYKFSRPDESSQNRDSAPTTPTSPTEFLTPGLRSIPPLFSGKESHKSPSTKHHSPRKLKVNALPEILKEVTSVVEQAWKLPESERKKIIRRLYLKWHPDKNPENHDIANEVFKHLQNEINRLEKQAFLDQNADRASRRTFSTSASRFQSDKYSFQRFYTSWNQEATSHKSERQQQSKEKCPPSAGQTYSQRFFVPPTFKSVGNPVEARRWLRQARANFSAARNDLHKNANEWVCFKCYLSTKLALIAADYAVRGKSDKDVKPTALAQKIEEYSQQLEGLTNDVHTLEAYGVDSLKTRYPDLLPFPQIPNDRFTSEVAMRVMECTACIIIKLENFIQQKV

Target: sacsin (endogenous, mouse brain) (mouse (endogenous in mouse brain)) (UniProt Q9JLC8)
Assay: affinity purification with mass spectrometry; mouse brain lysate incubated with Protein A Sepharose beads conjugated to affinity-purified sacsin antibody, 2 h at 4 °C; control: beads with lysate

- binding: binds
B1: JIP3 (C-jun-amino-terminal kinase-interacting protein 3), endogenous, mouse brain (protein, UniProt Q9ESN9 1-1337)
chain: MMEIQMDEGGGVVVYQDDYCSGSVMSERVSGLAGSIYREFERLIHCYDEEVVKELMPLVVNVLENLDSVLSENQEHEVELELLREDNEQLLTQYEREKALRKQAEEKFIEFEDALEQEKKELQIQVEHYEFQTRQLELKAKNYADQISRLEERESEMKKEYNALHQRHTEMIQTYVEHIERSKMQQVGGSGQTESSLPGRSRKERPTSLNVFPLADGMVRAQMGGKLVPAGDHWHLSDLGQLQSSSSYQCPNDEMSESGQSSAAATPSTTGTKSNTPTSSVPSAAVTPLNESLQPLGDYVSVTKNNKQAREKRNSRNMEVQVTQEMRNVSIGMGSSDEWSDVQDIIDSTPELDVCPETRLERTGSSPTQGIVNKAFGINTDSLYHELSTAGSEVIGDVDEGADLLGEFSVRDDFFGMGKEVGNLLLENSQLLETKNALNVVKNDLIAKVDQLSGEQEVLKGELEAAKQAKVKLENRIKELEEELKRVKSEAVTARREPREEVEDVSSYLCTELDKIPMAQRRRFTRVEMARVLMERNQYKERLMELQEAVRWTEMIRASREHPSVQEKKKSTIWQFFSRLFSSSSSPPPAKRSYPSVNIHYKSPTAAGFSQRRSHALCQISAGSRPLEFFPDDDCTSSARREQKREQYRQVREHVRNDDGRLQACGWSLPAKYKQLSPNGGQEDTRMKNVPVPVYCRPLVEKDPSTKLWCAAGVNLSGWKPHEEDSSNGPKPVPGRDPLTCDREGEGEPKSTHPSPEKKKAKETPEADATSSRVWILTSTLTTSKVVIIDANQPGTIVDQFTVCNAHVLCISSIPAASDSDYPPGEMFLDSDVNPEDSGADGVLAGITLVGCATRCNVPRSNCSSRGDTPVLDKGQGDVATTANGKVNPSQSTEEATEATEVPDPGPSESEATTVRPGPLTEHVFTDPAPTPSSSTQPASENGSESNGTIVQPQVEPSGELSTTTSSAAPTMWLGAQNGWLYVHSAVANWKKCLHSIKLKDSVLSLVHVKGRVLVALADGTLAIFHRGEDGQWDLSNYHLMDLGHPHHSIRCMAVVNDRVWCGYKNKVHVIQPKTMQIEKSFDAHPRRESQVRQLAWIGDGVWVSIRLDSTLRLYHAHTHQHLQDVDIEPYVSKMLGTGKLGFSFVRITALLIAGNRLWVGTGNGVVISIPLTETVVLHRGQLLGLRANKTSPTSGEGTRPGGIIHVYGDDSSDKAASSFIPYCSMAQAQLCFHGHRDAVKFFVSVPGNVLATLNGSVLDSPSEGPGPAAPAADAEGQKLKNALVLSGGEGYIDFRIGDGEDDETEECAGDVNQTKPSLSKAERSHIIVWQVSYTPE
